Results published in patent US20160229835A1, “NOVEL PYRIDYLOXYACETYL TETRAHYDROISOQUINOLINE COMPOUNDS USEFUL AS NAMPT INHIBITORS” (ELI LILLY AND COMPANY, priority 2013, published 2016).
Some results were stated once for a whole list of compounds, not compound by compound.

Chains of the proteins cited; added tags and fusions are not shown. Lines headed by an entry give the natural chain unless they say otherwise; changes in a name come on top.
UniProt P43490: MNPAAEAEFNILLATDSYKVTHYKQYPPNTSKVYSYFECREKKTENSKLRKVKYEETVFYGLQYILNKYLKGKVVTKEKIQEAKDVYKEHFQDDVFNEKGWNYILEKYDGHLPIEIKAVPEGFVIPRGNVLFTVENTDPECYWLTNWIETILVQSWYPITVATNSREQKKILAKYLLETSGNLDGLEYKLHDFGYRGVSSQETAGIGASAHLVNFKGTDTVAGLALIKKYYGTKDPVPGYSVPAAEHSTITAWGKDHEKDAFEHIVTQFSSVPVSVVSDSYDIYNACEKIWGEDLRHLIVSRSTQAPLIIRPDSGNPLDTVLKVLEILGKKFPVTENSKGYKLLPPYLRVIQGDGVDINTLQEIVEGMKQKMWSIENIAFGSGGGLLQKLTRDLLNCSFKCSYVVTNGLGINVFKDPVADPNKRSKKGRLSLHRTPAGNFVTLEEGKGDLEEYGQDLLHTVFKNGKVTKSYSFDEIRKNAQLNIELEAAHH

Each compound was assayed against NAMPT (Homo sapiens, UniProt P43490) (assay: NAMPT Biochemical Assay (NMN formation by LC-MS)). Settings: relative IC50; 1.5 nM NAMPT, 2 hours at room temperature; read-out: IC50 (inhibition of NAMPT catalytic activity, NMN formation).
Protocol: The purpose of this assay is to measure the ability of a compound to inhibit NAMPT catalytic activity. Reaction mixtures (25 μL) containing 50 mM HEPES at pH 7.5, 50 mM NaCl, 1 mM DTT, 0.005% TRITON® X-100, 1.5 μM phosphoribosyl-pyrophosphate, 0.5 μM nicotinamide (NAM), 1.5 nM NAMPT, 2.5 mM ATP, 1.25 mM MgCl2, 4% (v/v) DMSO and compounds after a ten-point series dilution from either 1 μM to 50 pM or 0.1 μM to 5 pM (final) are prepared. The reaction mixtures are incubated at room temperature for 2 hours. The reaction is terminated by the addition of ACN (25 μL) containing nicotinamide mononucleotide-d4 (NMN-d4) as an internal standard (final concentration: 5 μM). […] A positive control group (enzyme and DMSO, but no compound) is used to measure minimum inhibition (0%) of NMN formation. Percent inhibition of compound treated groups is calculated relative to the minimum inhibition group. The relative IC50 for each compound is calculated from a dose response study and is the concentration necessary to achieve 50% inhibition at this time point using the above disclosed ranges of 1 μM to 50 pM (final). The data generated from the dose-response studies is fit to a four-parameter logistic equation using ACTIVITYBASE 4.0 Equation 205.
Compound `O=C(COc1cccnc1)N1CCc2cc(NS(=O)(=O)CCC(F)(F)F)ccc2C1` [Example 5, 3,3,3-Trifluoro-N-{2-[(pyridin-3-yloxy)acetyl]-1,2,3,4-tetrahydroisoquinolin-6-yl}propane-1-sulfonamide] has an IC50 of no more than 16.7 nM.
`CC(C)(C)CC(=O)Nc1ccc2c(c1)CCN(C(=O)COc1cccnc1)C2` [Example 14, 3,3-Dimethyl-N-{2-[(pyridin-3-yloxy)acetyl]-1,2,3,4-tetrahydroisoquinolin-6-yl}butanamide] was tested, and the IC50 was no more than 16.7 nM.
With `CC(C)(O)CC(=O)Nc1ccc2c(c1)CCN(C(=O)COc1cccnc1)C2` [Example 15, 3-Hydroxy-3-methyl-N-{2-[(pyridin-3-yloxy)acetyl]-1,2,3,4-tetrahydroisoquinolin-6-yl}butanamide] the IC50 was no more than 16.7 nM.
In the case of `O=C(COc1cccnc1)N1CCc2cc(NS(=O)(=O)c3ccccn3)ccc2C1` [Example 3, N-{2-[(Pyridin-3-yloxy)acetyl]-1,2,3,4-tetrahydroisoquinolin-6-yl}pyridine-2-sulfonamide], the IC50 is reported as no more than 16.7 nM.
With `O=C(CN1CCOCC1)N1CCN(Cc2ccc3c(c2)CCN(C(=O)COc2cccnc2)C3)CC1` [Example 17, 2-(Morpholin-4-yl)-1-[4-({2-[(pyridin-3-yloxy)acetyl]-1,2,3,4-tetrahydroisoquinolin-6-yl}methyl)piperazin-1-yl]ethanone] the IC50 was no more than 16.7 nM.
For `O=C(COc1cccnc1)N1CCc2cc(NS(=O)(=O)C3CCOCC3)ccc2C1` [Example 4, N-{2-[(Pyridin-3-yloxy)acetyl]-1,2,3,4-tetrahydroisoquinolin-6-yl}tetrahydro-2H-pyran-4-sulfonamide], the IC50 was no more than 16.7 nM.
With `O=C(CC1CCCCO1)Nc1ccc2c(c1)CCN(C(=O)COc1cccnc1)C2` (single isomer, unassigned; isomer 2) [Example 13, N-[2-[2-(3-Pyridyloxy)acetyl]-3,4-dihydro-1H-isoquinolin-6-yl]-2-tetrahydropyran-2-yl-acetamide (isomer 2)] the IC50 was no more than 16.7 nM.
`CC(C)(O)CC(=O)N1CCN(Cc2ccc3c(c2)CCN(C(=O)COc2cccnc2)C3)CC1` [Example 18, 3-Hydroxy-3-methyl-1-[4-({2-[(pyridin-3-yloxy)acetyl]-1,2,3,4-tetrahydroisoquinolin-6-yl}methyl)piperazin-1-yl]butan-1-one] showed an IC50 of no more than 16.7 nM.
For `O=C(COc1cccnc1)N1CCc2cc(NS(=O)(=O)C3CCN(C4COC4)CC3)ccc2C1` [Example 8, 1-(Oxetan-3-yl)-N-[2-[2-(3-pyridyloxy)acetyl]-3,4-dihydro-1H-isoquinolin-6-yl]piperidine-4-sulfonamide], the IC50 was no more than 16.7 nM.
Compound `CN1CCC(S(=O)(=O)Nc2ccc3c(c2)CCN(C(=O)COc2cccnc2)C3)CC1` [Example 9, 1-Methyl-N-{2-[(pyridin-3-yloxy)acetyl]-1,2,3,4-tetrahydroisoquinolin-6-yl}piperidine-4-sulfonamide] has an IC50 of no more than 16.7 nM.
For `O=C(COc1cccnc1)N1CCc2cc(NS(=O)(=O)CC3CC3)ccc2C1` [Example 6, 1-Cyclopropyl-N-{2-[(pyridin-3-yloxy)acetyl]-1,2,3,4-tetrahydroisoquinolin-6-yl}methanesulfonamide], the IC50 was no more than 16.7 nM.
For `O=C(COc1cccnc1)N1CCc2cc(NS(=O)(=O)C3CCN(C(=O)C4CCOCC4)CC3)ccc2C1` [Example 10, N-[2-[2-(3-Pyridyloxy)acetyl]-3,4-dihydro-1H-isoquinolin-6-yl]-1-(tetrahydropyran-4-carbonyl)piperidine-4-sulfonamide], the IC50 was no more than 16.7 nM.
For `CC(O)(CC(=O)Nc1ccc2c(c1)CCN(C(=O)COc1cccnc1)C2)C(F)(F)F` (centres unmarked) [Example 12, 4,4,4-Trifluoro-3-hydroxy-3-methyl-N-[2-[2-(3-pyridyloxy)acetyl]-3,4-dihydro-1H-isoquinlin-6-yl]butanamide], the IC50 was no more than 16.7 nM.
With `COCCS(=O)(=O)Nc1ccc2c(c1)CCN(C(=O)COc1cccnc1)C2` [Example 2, 2-Methoxy-N-[2-[2-(3-pyridyloxy)acetyl]-3,4-dihydro-1H-isoquinolin-6-yl]ethanesulfonamide] the IC50 was no more than 16.7 nM.
Compound `CC(c1ccc2c(c1)CCN(C(=O)COc1cccnc1)C2)N1CCN(C(=O)C2CCOCC2)CC1` (single isomer, unassigned; isomer 2) [Example 20, 2-(3-Pyridyloxy)-1-[6-[1-[4-(tetrahydropyran-4-carbonyl)piperazin-1-yl]ethyl]-3,4-dihydro-1H-isoquinolin-2-yl]ethanone (isomer 2)] has an IC50 of no more than 16.7 nM.
Compound `O=C(CC1CCOCC1)N1CCN(Cc2ccc3c(c2)CCN(C(=O)COc2cccnc2)C3)CC1` [Example 19, 2-(Pyridin-3-yloxy)-1-[6-{[4-(tetrahydro-2H-pyran-4-ylacetyl)piperazin-1-yl]methyl}-3,4-dihydroisoquinolin-2(1H)-yl]ethanone] has an IC50 of no more than 16.7 nM.
`O=C(COc1cccnc1)N1CCc2cc(CN3CCN(C(=O)C4CCOCC4)CC3)ccc2C1` [Example 16, 2-(Pyridin-3-yloxy)-1-[6-{[4-(tetrahydro-2H-pyran-4-ylcarbonyl)piperazin-1-yl]methyl}-3,4-dihydroisoquinolin-2(1H)-yl]ethanone] gave an IC50 of no more than 16.7 nM.
`CC(C)(O)CS(=O)(=O)Nc1ccc2c(c1)CCN(C(=O)COc1cccnc1)C2` [Example 1, 2-Hydroxy-2-methyl-N-[2-[2-(3-pyridyloxy)acetyl]-3,4-dihydro-1H-isoquinolin-6-yl]propane-1-sulfonamide] showed an IC50 of no more than 16.7 nM.
With `CC(C)OCCS(=O)(=O)Nc1ccc2c(c1)CCN(C(=O)COc1cccnc1)C2` [Example 7, 2-Isopropoxy-N-[2-[2-(3-pyridyloxy)acetyl]-3,4-dihydro-1H-isoquinolin-6-yl]ethanesulfonamide] the IC50 was no more than 16.7 nM.
`CCC(C)(O)CC(=O)Nc1ccc2c(c1)CCN(C(=O)COc1cccnc1)C2` (centres unmarked) [Example 11, 3-Hydroxy-3-methyl-N-[2-[2-(3-pyridyloxy)acetyl]-3,4-dihydro-1H-isoquinolin-6-yl]pentanamide] gave an IC50 of no more than 16.7 nM.
